In publication PMC11850616, “Nanomolar inhibitor of the galectin-8 N-terminal domain binds via a non-canonical cation-π interaction” (Communications Chemistry, 2025):
A number of entries come with more than one value. The list is limited to them. There may be further records. The records of an entry appear to be repeats (runs, samples, wells or individuals).

Sequences of proteins named here, by UniProt entry; tags and fusion partners are left off.
UniProt P09382, whole entry: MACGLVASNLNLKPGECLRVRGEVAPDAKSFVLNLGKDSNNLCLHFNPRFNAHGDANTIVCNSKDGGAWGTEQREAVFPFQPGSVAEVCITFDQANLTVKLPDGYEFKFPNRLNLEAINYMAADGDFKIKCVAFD

Molecular target: Gal-1 (Homo sapiens, UniProt P09382)
Assay: competitive fluorescence polarisation assay, Gal-1
Settings: ratio of FP Kd values

## C#CCO[C@@H]1[C@@H](OCc2nc3ccc(C(=O)O)cc3n2C)[C@@H](O)[C@@H](CO)O[C@@H]1Sc1ccc(Cl)c(Cl)c1 [Compound 11]
  Gal-1 selectivity ratio Kd (Gal-1)/Kd (Gal-8N): about 13 and 12.5
